In the supplement of paper PMC10849652:
The list shows a part of the results.

By UniProt entry, the sequences of proteins in these tests, tags left out. Where a name states a change or a piece, a line headed by the entry shows the natural chain unless it says otherwise.
UniProt Q92973: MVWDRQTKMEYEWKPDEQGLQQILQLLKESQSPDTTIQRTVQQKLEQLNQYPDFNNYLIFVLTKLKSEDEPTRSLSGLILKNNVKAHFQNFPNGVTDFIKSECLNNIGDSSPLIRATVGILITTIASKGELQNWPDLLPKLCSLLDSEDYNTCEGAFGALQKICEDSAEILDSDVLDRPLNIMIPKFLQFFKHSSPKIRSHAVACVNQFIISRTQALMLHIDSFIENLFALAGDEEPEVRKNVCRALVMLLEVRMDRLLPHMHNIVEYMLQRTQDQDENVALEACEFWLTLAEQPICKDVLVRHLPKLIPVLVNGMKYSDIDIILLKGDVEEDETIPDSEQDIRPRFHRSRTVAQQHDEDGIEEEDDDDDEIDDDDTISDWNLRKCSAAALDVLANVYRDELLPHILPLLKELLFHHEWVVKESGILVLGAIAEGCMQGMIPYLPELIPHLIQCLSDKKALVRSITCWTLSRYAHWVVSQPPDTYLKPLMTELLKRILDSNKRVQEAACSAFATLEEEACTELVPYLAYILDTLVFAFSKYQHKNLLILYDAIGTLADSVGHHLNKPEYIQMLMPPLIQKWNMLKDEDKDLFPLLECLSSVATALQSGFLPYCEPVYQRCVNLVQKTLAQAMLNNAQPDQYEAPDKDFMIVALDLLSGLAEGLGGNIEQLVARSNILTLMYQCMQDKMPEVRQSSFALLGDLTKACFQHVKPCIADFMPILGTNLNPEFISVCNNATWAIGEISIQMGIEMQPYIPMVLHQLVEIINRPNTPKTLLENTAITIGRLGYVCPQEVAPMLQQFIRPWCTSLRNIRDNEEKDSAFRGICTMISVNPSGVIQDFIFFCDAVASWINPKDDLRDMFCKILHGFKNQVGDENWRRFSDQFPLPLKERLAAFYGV
UniProt P67936, whole entry, looked up: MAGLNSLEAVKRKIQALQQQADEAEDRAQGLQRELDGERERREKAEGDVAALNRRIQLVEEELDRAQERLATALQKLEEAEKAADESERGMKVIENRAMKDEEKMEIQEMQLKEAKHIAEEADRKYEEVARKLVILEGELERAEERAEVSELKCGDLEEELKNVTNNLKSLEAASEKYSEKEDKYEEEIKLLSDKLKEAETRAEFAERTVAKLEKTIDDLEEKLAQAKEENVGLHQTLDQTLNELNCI
UniProt O94842: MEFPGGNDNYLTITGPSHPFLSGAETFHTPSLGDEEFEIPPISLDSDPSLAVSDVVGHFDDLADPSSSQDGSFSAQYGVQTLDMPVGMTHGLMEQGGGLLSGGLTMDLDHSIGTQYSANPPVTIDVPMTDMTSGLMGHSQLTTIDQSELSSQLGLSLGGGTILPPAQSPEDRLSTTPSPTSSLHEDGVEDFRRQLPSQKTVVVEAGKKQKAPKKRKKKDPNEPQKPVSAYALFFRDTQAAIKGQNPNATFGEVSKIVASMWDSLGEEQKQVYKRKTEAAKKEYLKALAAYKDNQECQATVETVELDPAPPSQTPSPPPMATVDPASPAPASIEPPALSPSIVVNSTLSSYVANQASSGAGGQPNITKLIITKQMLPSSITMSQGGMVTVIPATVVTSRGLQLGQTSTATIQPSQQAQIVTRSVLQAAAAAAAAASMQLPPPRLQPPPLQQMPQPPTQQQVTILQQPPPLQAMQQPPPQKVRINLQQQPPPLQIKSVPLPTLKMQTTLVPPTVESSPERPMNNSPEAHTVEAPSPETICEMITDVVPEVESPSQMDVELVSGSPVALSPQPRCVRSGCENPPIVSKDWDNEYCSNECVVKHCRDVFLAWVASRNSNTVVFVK
UniProt Q8N511: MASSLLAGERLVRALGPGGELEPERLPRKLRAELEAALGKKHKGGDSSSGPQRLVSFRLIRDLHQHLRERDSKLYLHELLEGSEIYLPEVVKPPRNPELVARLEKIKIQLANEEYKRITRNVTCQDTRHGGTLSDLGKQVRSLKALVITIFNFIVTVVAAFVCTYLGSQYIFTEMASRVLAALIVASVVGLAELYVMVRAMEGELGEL
UniProt P11388: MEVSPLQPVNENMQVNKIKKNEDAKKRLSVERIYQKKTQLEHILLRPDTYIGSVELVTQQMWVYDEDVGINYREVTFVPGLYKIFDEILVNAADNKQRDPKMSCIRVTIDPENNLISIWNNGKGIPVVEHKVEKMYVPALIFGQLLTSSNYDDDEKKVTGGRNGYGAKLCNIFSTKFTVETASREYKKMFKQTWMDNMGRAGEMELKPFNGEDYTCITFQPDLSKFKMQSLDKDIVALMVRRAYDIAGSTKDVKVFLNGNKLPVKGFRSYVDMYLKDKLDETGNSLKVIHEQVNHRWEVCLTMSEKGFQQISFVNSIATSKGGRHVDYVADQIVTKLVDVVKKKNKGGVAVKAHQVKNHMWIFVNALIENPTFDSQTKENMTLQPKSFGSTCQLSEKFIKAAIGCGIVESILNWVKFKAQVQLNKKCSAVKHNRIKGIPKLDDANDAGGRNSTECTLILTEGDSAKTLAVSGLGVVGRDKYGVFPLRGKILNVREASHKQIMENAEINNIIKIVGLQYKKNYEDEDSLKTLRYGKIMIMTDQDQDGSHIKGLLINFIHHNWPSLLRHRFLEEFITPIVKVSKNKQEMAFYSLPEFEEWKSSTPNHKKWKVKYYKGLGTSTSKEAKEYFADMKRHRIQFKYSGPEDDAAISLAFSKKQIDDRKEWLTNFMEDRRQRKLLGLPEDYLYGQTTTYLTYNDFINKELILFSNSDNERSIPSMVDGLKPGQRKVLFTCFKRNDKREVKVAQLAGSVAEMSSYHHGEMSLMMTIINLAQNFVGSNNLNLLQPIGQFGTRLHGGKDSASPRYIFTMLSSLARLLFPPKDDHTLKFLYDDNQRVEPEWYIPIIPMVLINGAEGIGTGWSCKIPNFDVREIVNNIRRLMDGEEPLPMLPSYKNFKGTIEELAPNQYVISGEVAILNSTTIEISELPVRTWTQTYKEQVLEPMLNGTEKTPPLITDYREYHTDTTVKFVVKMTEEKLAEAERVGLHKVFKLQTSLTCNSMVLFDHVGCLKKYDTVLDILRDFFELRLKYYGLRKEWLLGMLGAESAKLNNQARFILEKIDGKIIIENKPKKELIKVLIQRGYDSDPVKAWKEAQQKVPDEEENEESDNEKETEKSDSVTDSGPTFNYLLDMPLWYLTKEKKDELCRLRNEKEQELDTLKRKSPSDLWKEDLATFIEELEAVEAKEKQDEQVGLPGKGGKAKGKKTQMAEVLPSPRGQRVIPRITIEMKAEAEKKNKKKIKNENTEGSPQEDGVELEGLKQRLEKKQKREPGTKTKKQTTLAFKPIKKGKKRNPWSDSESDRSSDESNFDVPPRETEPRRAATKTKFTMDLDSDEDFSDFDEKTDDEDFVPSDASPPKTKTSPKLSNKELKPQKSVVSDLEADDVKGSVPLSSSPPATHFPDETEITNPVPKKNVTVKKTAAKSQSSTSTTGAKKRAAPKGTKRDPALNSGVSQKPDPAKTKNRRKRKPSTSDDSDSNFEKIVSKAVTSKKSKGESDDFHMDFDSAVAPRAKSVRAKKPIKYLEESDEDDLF
UniProt Q13472: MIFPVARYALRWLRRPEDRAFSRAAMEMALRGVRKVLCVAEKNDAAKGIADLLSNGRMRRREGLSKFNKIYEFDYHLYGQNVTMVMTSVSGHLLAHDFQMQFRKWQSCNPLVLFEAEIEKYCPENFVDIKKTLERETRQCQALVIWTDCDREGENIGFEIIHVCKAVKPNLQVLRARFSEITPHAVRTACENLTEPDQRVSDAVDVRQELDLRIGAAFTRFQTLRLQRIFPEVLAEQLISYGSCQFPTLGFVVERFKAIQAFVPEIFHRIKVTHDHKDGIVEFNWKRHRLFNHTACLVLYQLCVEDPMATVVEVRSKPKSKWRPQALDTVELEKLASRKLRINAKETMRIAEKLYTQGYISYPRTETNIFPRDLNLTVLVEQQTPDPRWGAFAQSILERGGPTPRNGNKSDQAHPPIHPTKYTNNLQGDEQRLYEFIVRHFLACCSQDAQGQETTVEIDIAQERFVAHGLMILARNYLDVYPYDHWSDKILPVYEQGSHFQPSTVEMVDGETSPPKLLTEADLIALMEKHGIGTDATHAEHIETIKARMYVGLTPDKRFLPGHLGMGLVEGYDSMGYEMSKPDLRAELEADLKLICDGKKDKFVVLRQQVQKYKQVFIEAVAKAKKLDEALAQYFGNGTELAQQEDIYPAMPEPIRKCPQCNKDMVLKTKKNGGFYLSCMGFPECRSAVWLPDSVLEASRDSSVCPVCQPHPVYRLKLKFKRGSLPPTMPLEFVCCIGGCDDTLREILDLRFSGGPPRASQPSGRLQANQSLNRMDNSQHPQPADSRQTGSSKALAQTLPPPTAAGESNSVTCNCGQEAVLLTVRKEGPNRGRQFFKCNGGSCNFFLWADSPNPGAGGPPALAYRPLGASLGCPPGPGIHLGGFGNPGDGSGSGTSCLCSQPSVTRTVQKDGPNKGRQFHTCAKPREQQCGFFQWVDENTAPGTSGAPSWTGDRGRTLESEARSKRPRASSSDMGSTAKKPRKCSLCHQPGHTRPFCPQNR
UniProt Q96JJ7: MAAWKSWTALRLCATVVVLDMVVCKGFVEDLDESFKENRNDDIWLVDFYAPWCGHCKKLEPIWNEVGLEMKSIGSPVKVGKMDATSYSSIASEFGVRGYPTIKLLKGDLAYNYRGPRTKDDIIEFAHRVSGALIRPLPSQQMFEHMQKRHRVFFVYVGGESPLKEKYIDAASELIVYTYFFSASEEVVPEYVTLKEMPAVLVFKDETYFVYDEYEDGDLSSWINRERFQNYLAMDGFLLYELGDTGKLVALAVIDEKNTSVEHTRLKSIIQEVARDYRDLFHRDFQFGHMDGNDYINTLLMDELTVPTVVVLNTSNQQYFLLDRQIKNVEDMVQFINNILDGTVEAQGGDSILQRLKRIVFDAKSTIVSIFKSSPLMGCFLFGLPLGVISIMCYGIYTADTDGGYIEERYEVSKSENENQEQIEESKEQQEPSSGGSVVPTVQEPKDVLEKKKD
UniProt Q8IY95: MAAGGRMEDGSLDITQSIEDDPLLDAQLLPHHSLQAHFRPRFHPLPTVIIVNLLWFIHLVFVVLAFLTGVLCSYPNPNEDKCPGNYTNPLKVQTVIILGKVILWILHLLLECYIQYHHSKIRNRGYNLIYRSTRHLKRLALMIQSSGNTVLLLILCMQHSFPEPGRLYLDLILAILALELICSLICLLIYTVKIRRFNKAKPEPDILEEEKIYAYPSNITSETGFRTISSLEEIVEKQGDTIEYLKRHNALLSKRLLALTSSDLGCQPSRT
UniProt P20333, whole entry, looked up: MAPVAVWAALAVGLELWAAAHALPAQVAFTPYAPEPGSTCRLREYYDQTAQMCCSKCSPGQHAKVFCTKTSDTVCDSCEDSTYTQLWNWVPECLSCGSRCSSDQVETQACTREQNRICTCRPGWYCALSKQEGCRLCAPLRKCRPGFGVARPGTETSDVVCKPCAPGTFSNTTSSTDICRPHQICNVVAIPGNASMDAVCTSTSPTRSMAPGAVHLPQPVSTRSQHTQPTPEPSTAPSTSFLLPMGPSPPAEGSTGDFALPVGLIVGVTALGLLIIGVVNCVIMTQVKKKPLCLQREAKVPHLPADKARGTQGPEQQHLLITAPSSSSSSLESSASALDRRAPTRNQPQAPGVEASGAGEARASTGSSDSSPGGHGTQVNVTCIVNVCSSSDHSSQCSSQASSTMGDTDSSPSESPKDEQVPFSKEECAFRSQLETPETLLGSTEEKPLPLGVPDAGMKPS
UniProt O14773: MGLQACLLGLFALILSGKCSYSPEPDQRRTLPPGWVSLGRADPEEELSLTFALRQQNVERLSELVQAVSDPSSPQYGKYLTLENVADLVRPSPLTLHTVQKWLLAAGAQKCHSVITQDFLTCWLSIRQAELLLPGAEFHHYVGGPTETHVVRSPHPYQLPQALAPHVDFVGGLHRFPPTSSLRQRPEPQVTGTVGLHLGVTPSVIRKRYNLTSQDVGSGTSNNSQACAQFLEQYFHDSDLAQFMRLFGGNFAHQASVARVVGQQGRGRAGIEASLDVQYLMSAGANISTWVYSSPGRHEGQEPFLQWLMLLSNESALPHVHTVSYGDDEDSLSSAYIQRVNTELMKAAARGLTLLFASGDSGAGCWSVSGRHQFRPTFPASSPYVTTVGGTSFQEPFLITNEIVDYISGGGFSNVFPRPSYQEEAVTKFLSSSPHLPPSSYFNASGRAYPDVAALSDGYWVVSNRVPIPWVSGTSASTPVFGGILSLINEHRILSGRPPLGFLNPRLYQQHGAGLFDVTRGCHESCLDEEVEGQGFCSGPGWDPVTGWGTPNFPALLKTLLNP
UniProt Q53FA7: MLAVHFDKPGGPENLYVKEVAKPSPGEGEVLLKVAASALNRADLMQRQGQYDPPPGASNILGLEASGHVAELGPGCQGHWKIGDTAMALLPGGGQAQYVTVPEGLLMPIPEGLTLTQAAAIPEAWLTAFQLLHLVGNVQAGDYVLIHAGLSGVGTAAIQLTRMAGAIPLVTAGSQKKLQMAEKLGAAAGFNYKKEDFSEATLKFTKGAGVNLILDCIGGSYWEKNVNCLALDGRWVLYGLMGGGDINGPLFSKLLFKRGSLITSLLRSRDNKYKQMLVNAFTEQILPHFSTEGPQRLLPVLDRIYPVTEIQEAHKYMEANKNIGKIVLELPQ

Compound: CC1=CC=C(C=C1)SC2=C3C=C(SC3=CN=C2)C(=O)N
Experiment: log2 fold change, soluble protein after heating vs DMSO (PISA); higher = thermal stabilisation; K562 lysate, 10 uM; active = over 0.2 and 3.5 SD of the protein, either way, in both replicates (recomputed)
How it was run: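 Quantification was by TMTpro 16plex LC-MS/MS with equalised channel sums, applied to the supernatant after 21,000xg for 90 min. Samples were crude K562 extract at 1 mg/mL protein in PBS pH 7.4 with 1 mM MgCl2, treated with 10 μM compound for 30 min, heated for 3 min across 48°C-58°C, pooled and brought to 0.5% NP-40 at 4°C. Values are log-two fold changes in thermal stability relative to solvent controls, from duplicates.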

Target	log2 fold change
TPI1 (UniProt P60174)	inactive: -0.001
TMOD3 (UniProt Q9NYL9)	inactive: -0.017
TOR1AIP1 isoform 3 (UniProt Q5JTV8)	inactive: -0.015
TNPO1 (UniProt Q92973)	inactive: 0.007
TPP2 (UniProt P29144)	inactive: 0.002
TOR1AIP2 (UniProt Q8NFQ8)	inactive: 0.018
TP53BP1 isoform 2 (UniProt Q12888)	inactive: -0.012
TP53BP2 isoform 3 (UniProt Q13625)	inactive: 0.027
TMEM245 (UniProt Q9H330)	inactive: -0.046
TPM1 isoform 4 (UniProt P09493)	inactive: 0.001
TPM4 (UniProt P67936)	inactive: 0.006
TMTC3 (UniProt Q6ZXV5)	inactive: 0.015
TOP2B isoform 2 (UniProt Q02880)	inactive: 0.013
TOP1 (UniProt P11387)	inactive: 0.032
TOX4 (UniProt O94842)	inactive: 0.006
TNFRSF8 (UniProt P28908)	inactive: 0.016
TMEM63A (UniProt O94886)	inactive: 0.023

Target	log2 fold change
TPP2 (UniProt Q5VZU9)	inactive: 0.061
TMEM199 (UniProt Q8N511)	inactive: 0.009
TPD52L2 isoform 7 (UniProt O43399)	inactive: -0.001
TOP2A isoform 4 (UniProt P11388)	inactive: 0.008
TOP3A (UniProt Q13472)	inactive: 0.011
TMEM219 (UniProt Q86XT9)	inactive: -0.034
TMEM9B (UniProt Q9NQ34)	inactive: 0.023
TMX3 (UniProt Q96JJ7)	inactive: -0.006
TPR (UniProt P12270)	inactive: -0.014
TMEM192 (UniProt Q8IY95)	inactive: -0.01
TPX2 (UniProt Q9ULW0)	inactive: -0.01
TNFRSF1B (UniProt P20333)	inactive: 0.147
TPP1 (UniProt O14773)	inactive: -0.015
TP53I3 (UniProt Q53FA7)	inactive: -0.014
TMEM43 (UniProt Q9BTV4)	inactive: -0.023
TNFAIP8 isoform 4 (UniProt O95379)	inactive: -0.015

2 consecutive entries out of the list so far:
Target	log2 fold change
TMEM43 (UniProt Q9BTV4)	inactive: -0.023
TNFAIP8 isoform 4 (UniProt O95379)	inactive: -0.015
